No constants are given. Whether binding was seen depends on the method and setting. Some results given as binding are weak or reduced against the parent protein; the word gives no strength. Sequences can lack the tags named with a protein.
T1: (StrepII)2-TEV-tagged TIN2, subunit of recombinant shelterin (UniProt Q9BSI4)
T1 sequence: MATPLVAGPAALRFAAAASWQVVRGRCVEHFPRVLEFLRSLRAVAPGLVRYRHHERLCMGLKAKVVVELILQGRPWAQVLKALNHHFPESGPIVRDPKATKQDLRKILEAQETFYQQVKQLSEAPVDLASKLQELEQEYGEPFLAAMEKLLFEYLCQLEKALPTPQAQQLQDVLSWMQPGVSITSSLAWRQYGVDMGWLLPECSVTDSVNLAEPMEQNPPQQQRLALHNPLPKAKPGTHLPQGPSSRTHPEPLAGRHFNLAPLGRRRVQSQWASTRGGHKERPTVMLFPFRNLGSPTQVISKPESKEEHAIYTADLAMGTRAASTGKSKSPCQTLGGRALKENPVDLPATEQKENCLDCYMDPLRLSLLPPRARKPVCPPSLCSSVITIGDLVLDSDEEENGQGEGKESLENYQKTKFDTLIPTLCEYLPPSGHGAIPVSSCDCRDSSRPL


Experiments:
[1] = biological target: T1, (StrepII)2-TEV-tagged TIN2, subunit of recombinant shelterin; assay: co-purification (StrepTrap affinity, then SEC); six shelterin subunits co-expressed in Sf9 from one construct; captured by (StrepII)2-TIN2 on StrepTrap, eluted with desthiobiotin, several rounds of Superose 6 Increase SEC; 50 mM HEPES pH 8.0, 300 mM NaCl
[2] = biological target: T1, (StrepII)2-TEV-tagged TIN2, subunit of recombinant shelterin; assay: cross-linking; SEC-purified shelterin 0.9 µM with 0-300 µM compound 40 or control compound 60, 0.075% glutaraldehyde 25 min, SDS-PAGE and Western blots for TRF1, TRF2 and TIN2; both purified

Row | Binder | binding [1] | binding [2]
1 | TRF1 (telomeric repeat-binding factor 1), full length, subunit of recombinant shelterin (natural protein, human, UniProt P54274-1 1-439, looked up, TRF1, gene NM_017489.2, codon-optimised; the UniProt identifier is printed for the TRFH construct of the same protein; Further details of the shelterin construct 'to be reported elsewhere'; also called full-length TRF1) MAEDVSSAAPSPRGCADGRDADPTEEQMAETERNDEEQFECQELLECQVQVGAPEEEEEEEEDAGLVAEAEAVAAGWMLDFLCLSLCRAFRDGRSEDFRRTRNSAEAIIHGLSSLTACQLRTIYICQFLTRIAAGKTLDAQFENDERITPLESALMIWGSIEKEHDKLHEEIQNLIKIQAIAVCMENGNFKEAEEVFERIFGDPNSHMPFKSKLLMIISQKDTFHSFFQHFSYNHMMEKIKSYVNYVLSEKSSTFLMKAAAKVVESKRTRTITSQDKPSGNDVEMETEANLDTRKSVSDKQSAVTESSEGTVSLLRSHKNLFLSKLQHGTQQQDLNKKERRVGTPQSTKKKKESRRATESRIPVSKSQPVTPEKHRARKRQAWLWEEDKNLRSGVRKYGEGNWSKILLHYKFNNRTSVMLKDRWRTMKKLKLISSDSED | binds | binds
2 | TRF2 (telomeric repeat-binding factor 2), subunit of recombinant shelterin (natural protein, UniProt Q15554-3 1-542, looked up, TRF2, gene NM_005652.4, codon-optimised) MAAGAGTAGPASGPGVVRDPAASQPRKRPGREGGEGARRSDTMAGGGGSSDGSGRAAGRRASRSSGRARRGRHEPGLGGPAERGAGEARLEEAVNRWVLKFYFHEALRAFRGSRYGDFRQIRDIMQALLVRPLGKEHTVSRLLRVMQCLSRIEEGENLDCSFDMEAELTPLESAINVLEMIKTEFTLTEAVVESSRKLVKEAAVIICIKNKEFEKASKILKKHMSKDPTTQKLRNDLLNIIREKNLAHPVIQNFSYETFQQKMLRFLESHLDDAEPYLLTMAKKALKSESAASSTGKEDKQPAPGPVEKPPREPARQLRNPPTTIGMMTLKAAFKTLSGAQDSEAAFAKLDQKDLVLPTQALPASPALKNKRPRKDENESSAPADGEGGSELQPKNKRMTISRLVLEEDSQSTEPSAGLNSSQEAASAPPSKPTVLNQPLPGEKNPKVPKGKWNSSNGVEEKETWVEEDELFQVQAAPDEDSTTNITKKQKWTVEESEWVKAGVQKYGEGNWAAISKNYPFVNRTAVMIKDRWRTMKRLGMN | binds | binds

Continued, values first:

Row | binding [1] | binding [2] | Binder
3 | binds |  | RAP1, subunit of recombinant shelterin (natural protein, UniProt Q9NYB0 1-399, looked up, RAP1 (TRF2-associated shelterin subunit), gene NM_018975.3, codon-optimised) MAEAMDLGKDPNGPTHSSTLFVRDDGSSMSFYVRPSPAKRRLSTLILHGGGTVCRVQEPGAVLLAQPGEALAEASGDFISTQYILDCVERNERLELEAYRLGPASAADTGSEAKPGALAEGAAEPEPQRHAGRIAFTDADDVAILTYVKENARSPSSVTGNALWKAMEKSSLTQHSWQSLKDRYLKHLRGQEHKYLLGDAPVSPSSQKLKRKAEEDPEAADSGEPQNKRTPDLPEEEYVKEEIQENEEAVKKMLVEATREFEEVVVDESPPDFEIHITMCDDDPPTPEEDSETQPDEEEEEEEEKVSQPEVGAAIKIIRQLMEKFNLDLSTVTQAFLKNSGELEATSAFLASGQRADGYPIWSRQDDIDLQKDDEDTREALVKKFGAQNVARRIEFRKK
4 | binds |  | POT1, subunit of recombinant shelterin (natural protein, UniProt Q9NUX5-1 1-634, looked up, POT1 (shelterin subunit), gene NM_015450, codon-optimised) MSLVPATNYIYTPLNQLKGGTIVNVYGVVKFFKPPYLSKGTDYCSVVTIVDQTNVKLTCLLFSGNYEALPIIYKNGDIVRFHRLKIQVYKKETQGITSSGFASLTFEGTLGAPIIPRTSSKYFNFTTEDHKMVEALRVWASTHMSPSWTLLKLCDVQPMQYFDLTCQLLGKAEVDGASFLLKVWDGTRTPFPSWRVLIQDLVLEGDLSHIHRLQNLTIDILVYDNHVHVARSLKVGSFLRIYSLHTKLQSMNSENQTMLSLEFHLHGGTSYGRGIRVLPESNSDVDQLKKDLESANLTANQHSDVICQSEPDDSFPSSGSVSLYEVERCQQLSATILTDHQYLERTPLCAILKQKAPQQYRIRAKLRSYKPRRLFQSVKLHCPKCHLLQEVPHEGDLDIIFQDGATKTPDVKLQNTSLYDSKIWTTKNQKGRKVAVHFVKNNGILPLSNECLLLIEGGTLSEICKLSNKFNSVIPVRSGHEDLELLDLSAPFLIQGTIHHYGCKQCSSLRSIQNLNSLVDKTSWIPSSVAEALGIVPLQYVFVMTFTLDDGTGVLEAYLMDSDKFFQIPASEVLMDDDLQKSVDMIMDMFCPPGIKIDAYPWLECFIKSYNVTNGTDNQICYQIFDTTVAEDVI
5 | binds |  | TPP1, subunit of recombinant shelterin (natural protein, UniProt Q96AP0 1-458, looked up, TPP1 (shelterin subunit), gene BC016904.1, codon-optimised) MAGSGRLVLRPWIRELILGSETPSSPRAGQLLEVLQDAEAAVAGPSHAPDTSDVGATLLVSDGTHSVRCLVTREALDTSDWEEKEFGFRGTEGRLLLLQDCGVHVQVAEGGAPAEFYLQVDRFSLLPTEQPRLRVPGCNQDLDVQKKLYDCLEEHLSESTSSNAGLSLSQLLDEMREDQEHQGALVCLAESCLTLEGPCTAPPVTHWAASRCKATGEAVYTVPSSMLCISENDQLILSSLGPCQRTQGPELPPPDPALQDLSLTLIASPPSSPSSSGTPALPGHMSSEESGTSISLLPALSLAAPDPGQRSSSQPSPAICSAPATLTPRSPHASRTPSSPLQSCTPSLSPRSHVPSPHQALVTRPQKPSLEFKEFVGLPCKNRPPFPRTGATRGAQEPCSVWEPPKRHRDGSAFQYEYEPPCTSLCARVQAVRLPPQLMAWALHFLMDAQPGSEPTPM

— paper PMC12635197, “Discovery of first-in-class inhibitors of the TRF1:TIN2 protein:protein interaction by fragment screening” (Scientific Reports, 2025)
